# Results published in the supplement of paper PMC7666118.
# Sequences of proteins named here, by UniProt entry; tags and fusion partners are left off. A change or cut given only in a name is not applied to a line headed by its entry.
# UniProt Q8WUR7: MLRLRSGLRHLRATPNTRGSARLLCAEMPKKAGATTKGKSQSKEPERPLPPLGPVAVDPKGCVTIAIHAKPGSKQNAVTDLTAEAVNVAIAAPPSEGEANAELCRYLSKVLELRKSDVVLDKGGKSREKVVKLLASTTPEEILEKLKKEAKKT
# UniProt Q92560: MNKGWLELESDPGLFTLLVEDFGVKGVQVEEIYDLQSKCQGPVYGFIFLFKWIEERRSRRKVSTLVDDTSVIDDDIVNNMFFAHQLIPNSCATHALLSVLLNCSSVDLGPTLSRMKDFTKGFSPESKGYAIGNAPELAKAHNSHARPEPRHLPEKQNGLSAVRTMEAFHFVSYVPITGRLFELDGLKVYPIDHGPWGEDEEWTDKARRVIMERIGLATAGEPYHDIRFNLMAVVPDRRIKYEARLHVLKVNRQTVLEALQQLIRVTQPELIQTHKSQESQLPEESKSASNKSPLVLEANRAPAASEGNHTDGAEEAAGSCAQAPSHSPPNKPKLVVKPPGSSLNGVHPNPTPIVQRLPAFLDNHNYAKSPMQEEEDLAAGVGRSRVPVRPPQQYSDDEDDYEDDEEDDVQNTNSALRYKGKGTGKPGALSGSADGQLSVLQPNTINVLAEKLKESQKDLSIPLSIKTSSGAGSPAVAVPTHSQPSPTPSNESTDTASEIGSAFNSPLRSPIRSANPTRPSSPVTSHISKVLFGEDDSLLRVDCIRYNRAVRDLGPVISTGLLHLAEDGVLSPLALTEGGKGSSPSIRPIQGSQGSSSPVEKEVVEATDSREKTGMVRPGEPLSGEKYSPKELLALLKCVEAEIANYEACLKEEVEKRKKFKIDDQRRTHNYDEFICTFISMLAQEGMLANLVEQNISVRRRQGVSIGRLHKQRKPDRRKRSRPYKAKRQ
# UniProt Q9NQ88: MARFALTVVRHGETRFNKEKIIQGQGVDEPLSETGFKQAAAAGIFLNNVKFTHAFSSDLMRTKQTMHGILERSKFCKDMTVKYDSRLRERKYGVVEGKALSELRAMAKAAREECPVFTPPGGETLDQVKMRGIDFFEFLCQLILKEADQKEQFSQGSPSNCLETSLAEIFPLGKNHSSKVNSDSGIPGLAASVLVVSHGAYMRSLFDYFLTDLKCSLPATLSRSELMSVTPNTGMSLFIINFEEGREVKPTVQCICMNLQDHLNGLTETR
# UniProt Q6IAA8, whole entry: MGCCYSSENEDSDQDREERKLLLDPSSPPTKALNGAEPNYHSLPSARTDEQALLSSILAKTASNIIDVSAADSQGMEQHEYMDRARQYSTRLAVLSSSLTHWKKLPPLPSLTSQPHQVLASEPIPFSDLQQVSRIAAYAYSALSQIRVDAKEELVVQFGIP
# UniProt O43861: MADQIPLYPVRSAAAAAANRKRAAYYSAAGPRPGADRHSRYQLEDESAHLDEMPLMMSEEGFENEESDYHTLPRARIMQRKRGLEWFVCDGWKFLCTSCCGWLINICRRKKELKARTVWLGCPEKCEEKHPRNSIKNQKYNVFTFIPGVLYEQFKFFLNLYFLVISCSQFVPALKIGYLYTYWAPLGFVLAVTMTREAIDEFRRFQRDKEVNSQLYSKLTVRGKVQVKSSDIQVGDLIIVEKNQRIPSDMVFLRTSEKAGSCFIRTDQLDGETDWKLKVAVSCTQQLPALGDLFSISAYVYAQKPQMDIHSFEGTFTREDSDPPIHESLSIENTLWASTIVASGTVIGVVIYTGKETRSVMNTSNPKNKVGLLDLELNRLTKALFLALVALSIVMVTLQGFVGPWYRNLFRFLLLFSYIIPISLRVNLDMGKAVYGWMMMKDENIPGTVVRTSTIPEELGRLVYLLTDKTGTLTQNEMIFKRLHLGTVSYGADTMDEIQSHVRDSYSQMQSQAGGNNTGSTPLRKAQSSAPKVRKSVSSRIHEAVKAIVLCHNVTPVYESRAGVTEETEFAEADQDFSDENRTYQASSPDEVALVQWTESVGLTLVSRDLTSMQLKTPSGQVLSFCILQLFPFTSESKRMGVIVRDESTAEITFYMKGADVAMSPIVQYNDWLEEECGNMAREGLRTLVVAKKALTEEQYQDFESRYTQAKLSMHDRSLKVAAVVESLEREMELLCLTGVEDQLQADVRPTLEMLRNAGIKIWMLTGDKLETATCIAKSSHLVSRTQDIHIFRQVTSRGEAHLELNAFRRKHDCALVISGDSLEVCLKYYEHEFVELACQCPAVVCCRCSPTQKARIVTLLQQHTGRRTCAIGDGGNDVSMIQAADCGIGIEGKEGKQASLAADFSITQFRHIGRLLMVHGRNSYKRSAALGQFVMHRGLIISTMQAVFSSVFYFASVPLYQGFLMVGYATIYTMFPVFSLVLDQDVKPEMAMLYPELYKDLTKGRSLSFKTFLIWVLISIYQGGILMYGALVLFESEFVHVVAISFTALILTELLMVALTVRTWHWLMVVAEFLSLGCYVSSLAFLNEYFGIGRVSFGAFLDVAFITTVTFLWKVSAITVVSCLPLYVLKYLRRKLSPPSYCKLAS
# UniProt P36542: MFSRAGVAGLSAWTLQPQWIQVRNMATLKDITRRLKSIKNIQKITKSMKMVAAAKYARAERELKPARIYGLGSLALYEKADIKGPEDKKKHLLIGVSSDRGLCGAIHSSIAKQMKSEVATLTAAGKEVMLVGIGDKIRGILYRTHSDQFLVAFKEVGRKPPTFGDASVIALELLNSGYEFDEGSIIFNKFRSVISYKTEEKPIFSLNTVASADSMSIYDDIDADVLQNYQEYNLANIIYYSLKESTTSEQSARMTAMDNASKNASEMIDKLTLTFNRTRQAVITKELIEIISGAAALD
# UniProt O43684, whole entry: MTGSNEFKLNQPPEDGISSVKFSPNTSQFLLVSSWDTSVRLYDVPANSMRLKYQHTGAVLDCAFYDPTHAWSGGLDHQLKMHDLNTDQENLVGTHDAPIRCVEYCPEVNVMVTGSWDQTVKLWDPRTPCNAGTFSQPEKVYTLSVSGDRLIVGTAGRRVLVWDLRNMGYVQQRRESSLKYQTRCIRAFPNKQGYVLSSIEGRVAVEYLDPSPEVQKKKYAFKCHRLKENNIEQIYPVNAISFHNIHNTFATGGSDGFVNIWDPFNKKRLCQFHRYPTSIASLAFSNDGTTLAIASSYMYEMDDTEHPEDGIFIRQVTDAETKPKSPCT
# UniProt P21283, whole entry: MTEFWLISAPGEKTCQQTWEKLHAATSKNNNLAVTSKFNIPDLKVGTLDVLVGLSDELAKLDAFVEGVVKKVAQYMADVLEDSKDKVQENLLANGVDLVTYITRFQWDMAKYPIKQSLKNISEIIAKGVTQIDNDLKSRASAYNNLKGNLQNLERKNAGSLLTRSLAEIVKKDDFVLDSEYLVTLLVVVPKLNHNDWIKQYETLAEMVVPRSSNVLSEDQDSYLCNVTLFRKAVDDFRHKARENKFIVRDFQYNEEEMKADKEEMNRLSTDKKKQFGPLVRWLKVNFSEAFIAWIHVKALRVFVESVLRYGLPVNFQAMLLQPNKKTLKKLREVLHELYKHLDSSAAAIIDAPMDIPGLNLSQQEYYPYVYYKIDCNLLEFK
# The other results are listed elsewhere or left out.
# Compound: COc1ccc(Cn2ccc3cc(C)c(C(=O)NO)cc32)cc1
# Assay: dose-dependent thermal stabilisation call (2D-TPP, DLPTP, 10% FDR) (binary (1 = stabilised)); higher = stabilised by the compound
# Settings: system: HL-60 intact cells; concentration range 0.04-10 µM
# Method: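 2D thermal proteome profiling in intact HL-60 cells treated with BRD-3811 (0, 0.04, 0.29, 2, 10 uM) for 90 min at 37 C, then heated 3 min at one of 12 temperatures (42-63.9 C). Soluble protein was quantified by TMT10 MS. The value is the DLPTP call of the paper: dose-dependent thermal stabilisation over all temperatures at 10% FDR (F-test of a dose-response against a flat model); one experiment, one call per tested protein.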
row,Target,dose-dependent thermal stabilisation call
1,C15ORF40 (UniProt Q8WUR7),inactive: 0
2,BAP1 (UniProt Q92560),inactive: 0
3,C12ORF5 (UniProt Q9NQ88),inactive: 0
4,C11ORF59 (UniProt Q6IAA8),inactive: 0
5,UniProt B4DJG9_HUMAN,inactive: 0
6,ATP9B (UniProt O43861),inactive: 0
7,UniProt B3KTT6_HUMAN,inactive: 0
8,ATP5C1 (UniProt P36542),inactive: 0
9,BUB3 (UniProt O43684),inactive: 0
10,ATP6V1C1 (UniProt P21283),inactive: 0
